Measured values taken from publication PMC6628159 (Marine Drugs, 2019).

The chains behind the UniProt entries cited, without tags or fusion partners. Where a name states a change or a piece, a line headed by the entry shows the natural chain unless it says otherwise.
UniProt O15379: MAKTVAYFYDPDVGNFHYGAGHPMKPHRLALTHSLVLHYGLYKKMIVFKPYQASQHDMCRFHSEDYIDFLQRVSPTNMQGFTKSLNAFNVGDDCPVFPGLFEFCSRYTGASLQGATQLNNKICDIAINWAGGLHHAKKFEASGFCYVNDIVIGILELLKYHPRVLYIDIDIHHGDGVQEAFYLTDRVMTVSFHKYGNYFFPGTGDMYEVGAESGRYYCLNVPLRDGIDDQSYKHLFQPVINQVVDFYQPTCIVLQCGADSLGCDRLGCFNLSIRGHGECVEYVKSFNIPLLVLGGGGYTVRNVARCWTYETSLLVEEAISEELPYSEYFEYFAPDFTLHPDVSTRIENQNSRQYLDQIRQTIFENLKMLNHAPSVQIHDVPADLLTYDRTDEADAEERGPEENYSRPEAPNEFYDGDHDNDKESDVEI

Biological target: T1, recombinant human HDAC3 (Homo sapiens, UniProt O15379)
T1 construct: purchased BPS Biosciences
Experiment: Recombinant human HDAC3 enzymatic assay (Ac-peptide-AMC, fluorescence)
Assay type: biochemical
Details: IC50 ± SD HDAC3, 10-dose IC50 mode in duplicate, threefold serial dilution; 60 min reaction

CCCCCCCC(=O)SCC/C=C/[C@@H]1CC(=O)NCc2nc(cs2)C2=N[C@@](C)(CS2)C(=O)N[C@@H](C(C)C)C(=O)O1 [Largazole, reference compound] gave an IC50 of 2000 ± 28 nM.
